Data source: PubChem BioAssay AID720505 (Drosophila RNAi Screening Center, 2013)
Aim: 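Fly regulators or components of the CRAC channel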 (primary screen). Cell system: Drosophila S2R+ cells. Reagent: long dsRNA against Drosophila genes. Treatment: thapsigargin (2 µM) in calcium-free buffer to empty internal stores, then 2 mM calcium added back. Measured: 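Stores emptied by 2 µM thapsigargin without calcium, then 2 mM calcium re-added; fluo-4 fluorescence followed by FLIPR in 384-well plates, per-well averaged endpoint, raw; two screen passes, some wells retested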. Direction: calcium signal and retest calcium signal: higher = more calcium entry after store depletion. Call rule: 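Knock-downs counted as hits when calcium entry dropped relative to STIM1 positive and Rho1 negative controls present on each plate; roughly 1500 genes called, with reductions of differing size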. Calls: active = called as lowering calcium entry; inactive = not called.
The screen tested about 20,000 reagents; shown is a random part of those that have a named target and a result. In the full data, about 2,100 (10%) are marked active. 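Raw plate signals without normalisation; calls rest on control-based scores that were not deposited; replicate 2 separates called from uncalled poorly.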 Reagent sequences are not shown. Not given: the amount of reagent, the time to read-out.

After knock-down of Bhmt (Betaine-homocysteine S-methyltransferase) [DRSC02079] the results were calcium signal, replicate 1 = 118; calcium signal, replicate 2 = 118; inactive.
Silencing of mtgo (miles to go) [DRSC02245] resulted in: calcium signal, replicate 1 = 60.3; calcium signal, replicate 2 = 114; retest calcium signal, replicate 1 = 154; retest calcium signal, replicate 2 = 174; active.
Depletion of mtgo (miles to go) [DRSC02246] resulted in: calcium signal, replicate 1 = 195; calcium signal, replicate 2 = 169; retest calcium signal, replicate 1 = 118; retest calcium signal, replicate 2 = 140; inactive.
Silencing of mtgo (miles to go) [DRSC02769] came out at: calcium signal, replicate 1 = 95.3; calcium signal, replicate 2 = 161; inactive.
Against mtgo (miles to go) [DRSC21392], the entry reads calcium signal, replicate 1 = 144; calcium signal, replicate 2 = 120; inactive.
After knock-down of mtgo (miles to go) [DRSC21743] the results were calcium signal, replicate 1 = 123; calcium signal, replicate 2 = 109; inactive.
CG10469 [DRSC09729] scored calcium signal, replicate 1 = 109; calcium signal, replicate 2 = 60.6; inactive.
Against CG17544 [DRSC02624] the deposit lists calcium signal, replicate 1 = 103; calcium signal, replicate 2 = 120; inactive.
Depletion of CG12746 [DRSC12218] came out at: calcium signal, replicate 1 = 107; calcium signal, replicate 2 = 104; inactive.
Depletion of tacc (transforming acidic coiled-coil protein) [DRSC12388] came out at: calcium signal, replicate 1 = 56; calcium signal, replicate 2 = 51; retest calcium signal, replicate 1 = 114; retest calcium signal, replicate 2 = 66; active.
Against rpk (ripped pocket) [DRSC12386], the entry reads calcium signal, replicate 1 = 119; calcium signal, replicate 2 = 72.8; inactive.
rpk (ripped pocket) [DRSC21656] gave calcium signal, replicate 1 = 96.1; calcium signal, replicate 2 = 116; inactive.
Against CG33303 [DRSC02848] the deposit lists calcium signal, replicate 1 = 157; calcium signal, replicate 2 = 118; inactive.
With knock-down of Gem2 (Gemin 2) [DRSC09721], the screen gave calcium signal, replicate 1 = 149; calcium signal, replicate 2 = 79; inactive.
ItgaPS4 (Integrin alphaPS4 subunit) [DRSC06630] showed calcium signal, replicate 1 = 107; calcium signal, replicate 2 = 210; inactive.
Silencing of r (rudimentary) [DRSC19813] resulted in: calcium signal, replicate 1 = 82.9; calcium signal, replicate 2 = 120; inactive.
r (rudimentary) [DRSC19814] gave calcium signal, replicate 1 = 72.2; calcium signal, replicate 2 = 83.6; active.
Against Prp38 (pre-mRNA processing factor 38) [DRSC07060], the entry reads calcium signal, replicate 1 = 153; calcium signal, replicate 2 = 114; inactive.
For SPH93 (Serine protease homolog 93) [DRSC02978], the entry reads calcium signal, replicate 1 = 101; calcium signal, replicate 2 = 109; inactive.

A stretch taken from the entries so far:
mtgo (miles to go) [DRSC21392] | calcium signal, replicate 1 = 144; calcium signal, replicate 2 = 120; activity call = inactive
mtgo (miles to go) [DRSC21743] | calcium signal, replicate 1 = 123; calcium signal, replicate 2 = 109; activity call = inactive
CG10469 [DRSC09729] | calcium signal, replicate 1 = 109; calcium signal, replicate 2 = 60.6; activity call = inactive
